Patent US20080214395A1 (priority 2005, published 2008)
Some entries share one result that the patent states for a list of compounds.

Test system: Phytophthora infestans
Format: in vivo
Conditions: 63 ppm active compound, potted tomato plants sprayed to runoff, 1 day protective treatment, visual rating after 6 days; untreated plants 90% infected

CCc1ccc(-n2c(C)nc3nnnc-3c2N)cc1 [I-2, 5-methyl-6-(p-ethylphenyl)-7-aminotriazolopyrimidine]
infection: not more than 10%
